Results on 5 molecules are retold here after article PMC7720568.

Chains of the proteins cited; added tags and fusions are not shown. Residues count along the entry.
UniProt P28074, residues 60-263: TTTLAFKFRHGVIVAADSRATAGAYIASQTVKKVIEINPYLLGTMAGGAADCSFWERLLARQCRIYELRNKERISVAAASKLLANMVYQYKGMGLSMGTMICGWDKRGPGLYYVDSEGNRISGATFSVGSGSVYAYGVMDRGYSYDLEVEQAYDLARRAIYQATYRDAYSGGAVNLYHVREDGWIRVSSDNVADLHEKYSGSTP

No constants are given. Whether binding was seen depends on the method and setting. For some assays here: In cells and extracts the contact can be indirect. Some entries that bind do so weakly or less than the wild type. For some assays here: Tags and fused reporters may be left off the sequences shown.

The target of experiment [1] is T1, Glutathione synthetase (human (endogenous in HepG2)) (UniProt P48637).
T1 sequence: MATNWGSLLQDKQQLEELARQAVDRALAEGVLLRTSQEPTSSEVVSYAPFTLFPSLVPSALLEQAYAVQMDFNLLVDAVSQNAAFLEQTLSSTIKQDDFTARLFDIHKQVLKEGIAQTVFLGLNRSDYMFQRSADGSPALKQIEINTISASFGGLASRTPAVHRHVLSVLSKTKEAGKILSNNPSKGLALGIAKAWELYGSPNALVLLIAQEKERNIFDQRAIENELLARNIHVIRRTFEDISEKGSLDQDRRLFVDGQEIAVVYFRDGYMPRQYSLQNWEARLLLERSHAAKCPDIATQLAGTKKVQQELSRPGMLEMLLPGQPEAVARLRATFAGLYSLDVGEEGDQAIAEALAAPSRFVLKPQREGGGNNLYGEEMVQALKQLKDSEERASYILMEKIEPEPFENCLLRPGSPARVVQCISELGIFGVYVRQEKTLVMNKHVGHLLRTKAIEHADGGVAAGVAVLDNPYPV
Kind of experiment: proximity ligation; Duolink PLA in fixed HepG2 cells expressing RRM2^WT, RRM2^T33A or RRM2^T33E; anti-Myc and anti-GSS primary antibodies.

Experiment [2] concerns the target PSMB5 (human (endogenous in HepG2)) (UniProt P28074). Kind of experiment: co-IP; IP with anti-PSMB5 from lysates of RRM2-/- HepG2 cells reconstituted with RRM2^WT, RRM2^T33A or RRM2^T33E; immunoblot with anti-RRM2 and anti-GSS. On the technique in general: Immunoblotting shows a protein as a band on a membrane.
For experiment [3], the target named is T1, Glutathione synthetase (human (endogenous in HepG2)). The experiment can be described thus: co-IP; reciprocal IP of RRM2 and GSS from lysates of RRM2-/- HepG2 cells reconstituted with RRM2^WT, RRM2^T33A or RRM2^T33E; antibodies at 4 °C overnight, protein A/G magnetic beads, immunoblot.
Experiment [4] has the same target. Kind of experiment: co-IP; reciprocal IP of endogenous RRM2 and GSS from HepG2 lysates, cells with or without NU6102 (20 μM, 24 h) and SB203580 (10 μM, 24 h); protein A/G magnetic beads, immunoblot.
Experiment [5] concerns the target PSMB5 (human (endogenous in HepG2)) (UniProt P28074). Kind of experiment: proteasome isolation with affinity beads (kit); proteasomes isolated with the Sigma proteasome isolation kit (#539176) from HepG2 cells with or without erastin (10 μM, 24 h) in the presence of MG132 (8 μM, 24 h); affinity and control beads in parallel; immunoblot.

B1: Ribonucleotide reductase regulatory subunit M2, wild type, Myc-tagged (protein, UniProt P31350 1-389)
chain: MLSLRVPLAPITDPQQLQLSPLKGLSLVDKENTPPALSGTRVLASKTARRIFQEPTEPKTKAAAPGVEDEPLLRENPRRFVIFPIEYHDIWQMYKKAEASFWTAEEVDLSKDIQHWESLKPEERYFISHVLAFFAASDGIVNENLVERFSQEVQITEARCFYGFQIAMENIHSEMYSLLIDTYIKDPKEREFLFNAIETMPCVKKKADWALRWIGDKEATYGERVVAFAAVEGIFFSGSFASIFWLKKRGLMPGLTFSNELISRDEGLHCDFACLMFKHLVHKPSEERVREIIINAVRIEQEFLTEALPVKLIGMNCTLMKQYIEFVADRLMLELGFSKVFRVENPFDFMENISLEGKTNFFEKRVGEYQRMGVMSSPTENSFTLDADF
Consider B1, for which the binding entry in experiment [1], in experiment [2] and in experiment [3] was “binds” each time.

B2: Ribonucleotide reductase regulatory subunit M2, endogenous (protein, UniProt P31350 1-389)
chain: MLSLRVPLAPITDPQQLQLSPLKGLSLVDKENTPPALSGTRVLASKTARRIFQEPTEPKTKAAAPGVEDEPLLRENPRRFVIFPIEYHDIWQMYKKAEASFWTAEEVDLSKDIQHWESLKPEERYFISHVLAFFAASDGIVNENLVERFSQEVQITEARCFYGFQIAMENIHSEMYSLLIDTYIKDPKEREFLFNAIETMPCVKKKADWALRWIGDKEATYGERVVAFAAVEGIFFSGSFASIFWLKKRGLMPGLTFSNELISRDEGLHCDFACLMFKHLVHKPSEERVREIIINAVRIEQEFLTEALPVKLIGMNCTLMKQYIEFVADRLMLELGFSKVFRVENPFDFMENISLEGKTNFFEKRVGEYQRMGVMSSPTENSFTLDADF
B2: the binding entry in experiment [4] and in experiment [5] was “binds” in each case.

B3: Ribonucleotide reductase regulatory subunit M2, T33A mutant, Myc-tagged (protein, UniProt P31350 1-389)
chain: MLSLRVPLAPITDPQQLQLSPLKGLSLVDKENAPPALSGTRVLASKTARRIFQEPTEPKTKAAAPGVEDEPLLRENPRRFVIFPIEYHDIWQMYKKAEASFWTAEEVDLSKDIQHWESLKPEERYFISHVLAFFAASDGIVNENLVERFSQEVQITEARCFYGFQIAMENIHSEMYSLLIDTYIKDPKEREFLFNAIETMPCVKKKADWALRWIGDKEATYGERVVAFAAVEGIFFSGSFASIFWLKKRGLMPGLTFSNELISRDEGLHCDFACLMFKHLVHKPSEERVREIIINAVRIEQEFLTEALPVKLIGMNCTLMKQYIEFVADRLMLELGFSKVFRVENPFDFMENISLEGKTNFFEKRVGEYQRMGVMSSPTENSFTLDADF
Take B3: the binding entry in experiment [1], in experiment [2] and in experiment [3] was “binds” throughout.

B4: Ribonucleotide reductase regulatory subunit M2, T33E mutant, Myc-tagged (protein, UniProt P31350 1-389)
chain: MLSLRVPLAPITDPQQLQLSPLKGLSLVDKENEPPALSGTRVLASKTARRIFQEPTEPKTKAAAPGVEDEPLLRENPRRFVIFPIEYHDIWQMYKKAEASFWTAEEVDLSKDIQHWESLKPEERYFISHVLAFFAASDGIVNENLVERFSQEVQITEARCFYGFQIAMENIHSEMYSLLIDTYIKDPKEREFLFNAIETMPCVKKKADWALRWIGDKEATYGERVVAFAAVEGIFFSGSFASIFWLKKRGLMPGLTFSNELISRDEGLHCDFACLMFKHLVHKPSEERVREIIINAVRIEQEFLTEALPVKLIGMNCTLMKQYIEFVADRLMLELGFSKVFRVENPFDFMENISLEGKTNFFEKRVGEYQRMGVMSSPTENSFTLDADF
Turning to B4, the binding entry in experiment [2] is “binds”.

B5: Glutathione synthetase (enzyme, UniProt P48637 1-474)
chain: MATNWGSLLQDKQQLEELARQAVDRALAEGVLLRTSQEPTSSEVVSYAPFTLFPSLVPSALLEQAYAVQMDFNLLVDAVSQNAAFLEQTLSSTIKQDDFTARLFDIHKQVLKEGIAQTVFLGLNRSDYMFQRSADGSPALKQIEINTISASFGGLASRTPAVHRHVLSVLSKTKEAGKILSNNPSKGLALGIAKAWELYGSPNALVLLIAQEKERNIFDQRAIENELLARNIHVIRRTFEDISEKGSLDQDRRLFVDGQEIAVVYFRDGYMPRQYSLQNWEARLLLERSHAAKCPDIATQLAGTKKVQQELSRPGMLEMLLPGQPEAVARLRATFAGLYSLDVGEEGDQAIAEALAAPSRFVLKPQREGGGNNLYGEEMVQALKQLKDSEERASYILMEKIEPEPFENCLLRPGSPARVVQCISELGIFGVYVRQEKTLVMNKHVGHLLRTKAIEHADGGVAAGVAVLDNPYPV
B5: the binding result in experiment [2] and in experiment [5] was “binds” throughout.
